Measurements from PubChem BioAssay AID540303 (National Center for Advancing Translational Sciences (NCATS), 2011).
Out of some 330,000 compounds screened, about 1,000 (0.3%) were called active. The shares of active, inactive and inconclusive entries below differ from those in the screen. The call rests on the fitted dose curve; in most records, active means well fitted inhibition curve with a large enough effect; inconclusive means small, poorly fitted or top-dose-only effect; inactive means no such curve, though single readings can be large or run the other way; tested in mouse RAW 264.7 cells. Potencies of inconclusive entries are doubtful fits and often do not repeat.

Assay: qHTS for Inhibitors of Cell Surface uPA Generation; further: nearly all actives have a fitted effect of over 55% in size
Settings: cell surface uPA generation assay; series mostly up to 38.3 µM; activity change, negative = inhibition: at the top concentration
Summary of the method: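 ATP-Lite luminescence in RAW 264.7 cells after 24 h of exposure to compound, tested up to 38.3 uM final in 1:5 steps. Raised ATP reflects inhibition of uPA-dependent LF delivery to the cytoplasm.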
On the % scale 0 is the no-effect control and ±100 the full control effect; potency means the concentration at half of the fitted maximal effect.

Row | SMILES | Potency | activity change, negative = inhibition
1 | CCN(CC)C(=O)c1ccc(NC(=O)c2cccc(S(=O)(=O)N3CCN(Cc4ccccc4)CC3)c2)cc1 | inconclusive: 12.6 µM [inhibitor, single point] | 
2 | C#CCOCCOCCOCCNc1nc(N2CCN(C(=O)CCCCCCCCCCNC(=O)Cn3cc(C[C@@H](C)O)nn3)CC2)nc(N2CCN(C(=O)CCCCCCCCCCNC(=O)Cn3cc(C[C@@H](C)O)nn3)CC2)n1 | inconclusive: 12.6 µM [inhibitor, single point] | 
3 | COC(=O)C1=C(c2cc3ccccc3o2)C[C@@H]2CC[C@H]1N2C(=O)NCc1cccc2ccccc12 | inconclusive: 8.91 µM [inhibitor, single point] | 
4 | NC(=O)CC(NC(=O)c1ccc(Br)cc1)c1ccc(N2CCC(Cc3ccccc3)CC2)c([N+](=O)[O-])c1 (stereo unspecified) | inconclusive: 12.6 µM [inhibitor, single point] | 
5 | CCOP(=S)(OCC)N1CCOCCOCCN(P(=S)(OCC)OCC)CCOCCOCC1 |  | inactive: 1.08%
6 | CCC(=NCc1ccc(F)cc1)c1c(O)n(C)c(=O)n(C)c1=O |  | inactive: -3.73%
7 | CC(C)Cn1c(N)c(C(=O)COC(=O)c2cc(C3CC3)nc3ccccc23)c(=O)n(C)c1=O | inconclusive: 12.6 µM [inhibitor, single point] | 
8 | C[n+]1ccc(-c2ccccc2)c2ccccc21 | inconclusive: 12.6 µM [inhibitor, single point] | 
9 | N#CC(c1cccnc1)N1CCOCC1 (stereo unspecified) |  | inactive: 9.72%
10 | COc1ccc(C[C@H]2CN3C(=NC[C@@H]3C(C)C)N2CCNC(=O)c2ccc(C)c(Br)c2)cc1 | inconclusive: 12.6 µM [inhibitor, single point] | 
11 | COc1ccccc1C1c2[nH]c3ccccc3c2C[C@H]2C(=O)N(C3CCN(Cc4ccccc4)CC3)CC(=O)N12 (stereo partly specified) | inconclusive: 10 µM [inhibitor, partial curve, poor fit] | 
12 | O=C(O)c1cc(O)c2c(c1)C(=O)c1cccc(O)c1C2=O | inconclusive: 12.6 µM [inhibitor, single point] | 
13 | Cn1c(O)c(C(=O)c2ccccc2F)c(=O)n(C)c1=O |  | inactive: -1.28%
14 | CC(Nc1nc(-c2ccc(F)cc2)cs1)c1nc2cc(Cl)c(Cl)cc2n1CCCO (stereo unspecified) | inconclusive: 10 µM [inhibitor, single point] | 
15 | COC(=O)C1=C(c2ccc(OCc3ccccc3)cc2)C[C@@H]2CC[C@H]1N2C(=O)NCc1ccccc1 | inconclusive: 11.2 µM [inhibitor, single point] | 
16 | COC(=O)C1=C(c2cccc(OCc3ccccc3)c2)C[C@@H]2CC[C@H]1N2C(=O)NCc1ccc2[nH]ccc2c1 | inconclusive: 0.316 µM [inhibitor, full curve, poor fit] | 

3 compounds already listed, arranged by number of heavy atoms, rising.
Row | SMILES | Potency | activity change, negative = inhibition
8 | C[n+]1ccc(-c2ccccc2)c2ccccc21 | inconclusive: 12.6 µM [inhibitor, single point] | 
14 | CC(Nc1nc(-c2ccc(F)cc2)cs1)c1nc2cc(Cl)c(Cl)cc2n1CCCO (stereo unspecified) | inconclusive: 10 µM [inhibitor, single point] | 
15 | COC(=O)C1=C(c2ccc(OCc3ccccc3)cc2)C[C@@H]2CC[C@H]1N2C(=O)NCc1ccccc1 | inconclusive: 11.2 µM [inhibitor, single point] | 
